# Data published in PMC11642917.
# Chains of the proteins cited; added tags and fusions are not shown.
# UniProt Q17551: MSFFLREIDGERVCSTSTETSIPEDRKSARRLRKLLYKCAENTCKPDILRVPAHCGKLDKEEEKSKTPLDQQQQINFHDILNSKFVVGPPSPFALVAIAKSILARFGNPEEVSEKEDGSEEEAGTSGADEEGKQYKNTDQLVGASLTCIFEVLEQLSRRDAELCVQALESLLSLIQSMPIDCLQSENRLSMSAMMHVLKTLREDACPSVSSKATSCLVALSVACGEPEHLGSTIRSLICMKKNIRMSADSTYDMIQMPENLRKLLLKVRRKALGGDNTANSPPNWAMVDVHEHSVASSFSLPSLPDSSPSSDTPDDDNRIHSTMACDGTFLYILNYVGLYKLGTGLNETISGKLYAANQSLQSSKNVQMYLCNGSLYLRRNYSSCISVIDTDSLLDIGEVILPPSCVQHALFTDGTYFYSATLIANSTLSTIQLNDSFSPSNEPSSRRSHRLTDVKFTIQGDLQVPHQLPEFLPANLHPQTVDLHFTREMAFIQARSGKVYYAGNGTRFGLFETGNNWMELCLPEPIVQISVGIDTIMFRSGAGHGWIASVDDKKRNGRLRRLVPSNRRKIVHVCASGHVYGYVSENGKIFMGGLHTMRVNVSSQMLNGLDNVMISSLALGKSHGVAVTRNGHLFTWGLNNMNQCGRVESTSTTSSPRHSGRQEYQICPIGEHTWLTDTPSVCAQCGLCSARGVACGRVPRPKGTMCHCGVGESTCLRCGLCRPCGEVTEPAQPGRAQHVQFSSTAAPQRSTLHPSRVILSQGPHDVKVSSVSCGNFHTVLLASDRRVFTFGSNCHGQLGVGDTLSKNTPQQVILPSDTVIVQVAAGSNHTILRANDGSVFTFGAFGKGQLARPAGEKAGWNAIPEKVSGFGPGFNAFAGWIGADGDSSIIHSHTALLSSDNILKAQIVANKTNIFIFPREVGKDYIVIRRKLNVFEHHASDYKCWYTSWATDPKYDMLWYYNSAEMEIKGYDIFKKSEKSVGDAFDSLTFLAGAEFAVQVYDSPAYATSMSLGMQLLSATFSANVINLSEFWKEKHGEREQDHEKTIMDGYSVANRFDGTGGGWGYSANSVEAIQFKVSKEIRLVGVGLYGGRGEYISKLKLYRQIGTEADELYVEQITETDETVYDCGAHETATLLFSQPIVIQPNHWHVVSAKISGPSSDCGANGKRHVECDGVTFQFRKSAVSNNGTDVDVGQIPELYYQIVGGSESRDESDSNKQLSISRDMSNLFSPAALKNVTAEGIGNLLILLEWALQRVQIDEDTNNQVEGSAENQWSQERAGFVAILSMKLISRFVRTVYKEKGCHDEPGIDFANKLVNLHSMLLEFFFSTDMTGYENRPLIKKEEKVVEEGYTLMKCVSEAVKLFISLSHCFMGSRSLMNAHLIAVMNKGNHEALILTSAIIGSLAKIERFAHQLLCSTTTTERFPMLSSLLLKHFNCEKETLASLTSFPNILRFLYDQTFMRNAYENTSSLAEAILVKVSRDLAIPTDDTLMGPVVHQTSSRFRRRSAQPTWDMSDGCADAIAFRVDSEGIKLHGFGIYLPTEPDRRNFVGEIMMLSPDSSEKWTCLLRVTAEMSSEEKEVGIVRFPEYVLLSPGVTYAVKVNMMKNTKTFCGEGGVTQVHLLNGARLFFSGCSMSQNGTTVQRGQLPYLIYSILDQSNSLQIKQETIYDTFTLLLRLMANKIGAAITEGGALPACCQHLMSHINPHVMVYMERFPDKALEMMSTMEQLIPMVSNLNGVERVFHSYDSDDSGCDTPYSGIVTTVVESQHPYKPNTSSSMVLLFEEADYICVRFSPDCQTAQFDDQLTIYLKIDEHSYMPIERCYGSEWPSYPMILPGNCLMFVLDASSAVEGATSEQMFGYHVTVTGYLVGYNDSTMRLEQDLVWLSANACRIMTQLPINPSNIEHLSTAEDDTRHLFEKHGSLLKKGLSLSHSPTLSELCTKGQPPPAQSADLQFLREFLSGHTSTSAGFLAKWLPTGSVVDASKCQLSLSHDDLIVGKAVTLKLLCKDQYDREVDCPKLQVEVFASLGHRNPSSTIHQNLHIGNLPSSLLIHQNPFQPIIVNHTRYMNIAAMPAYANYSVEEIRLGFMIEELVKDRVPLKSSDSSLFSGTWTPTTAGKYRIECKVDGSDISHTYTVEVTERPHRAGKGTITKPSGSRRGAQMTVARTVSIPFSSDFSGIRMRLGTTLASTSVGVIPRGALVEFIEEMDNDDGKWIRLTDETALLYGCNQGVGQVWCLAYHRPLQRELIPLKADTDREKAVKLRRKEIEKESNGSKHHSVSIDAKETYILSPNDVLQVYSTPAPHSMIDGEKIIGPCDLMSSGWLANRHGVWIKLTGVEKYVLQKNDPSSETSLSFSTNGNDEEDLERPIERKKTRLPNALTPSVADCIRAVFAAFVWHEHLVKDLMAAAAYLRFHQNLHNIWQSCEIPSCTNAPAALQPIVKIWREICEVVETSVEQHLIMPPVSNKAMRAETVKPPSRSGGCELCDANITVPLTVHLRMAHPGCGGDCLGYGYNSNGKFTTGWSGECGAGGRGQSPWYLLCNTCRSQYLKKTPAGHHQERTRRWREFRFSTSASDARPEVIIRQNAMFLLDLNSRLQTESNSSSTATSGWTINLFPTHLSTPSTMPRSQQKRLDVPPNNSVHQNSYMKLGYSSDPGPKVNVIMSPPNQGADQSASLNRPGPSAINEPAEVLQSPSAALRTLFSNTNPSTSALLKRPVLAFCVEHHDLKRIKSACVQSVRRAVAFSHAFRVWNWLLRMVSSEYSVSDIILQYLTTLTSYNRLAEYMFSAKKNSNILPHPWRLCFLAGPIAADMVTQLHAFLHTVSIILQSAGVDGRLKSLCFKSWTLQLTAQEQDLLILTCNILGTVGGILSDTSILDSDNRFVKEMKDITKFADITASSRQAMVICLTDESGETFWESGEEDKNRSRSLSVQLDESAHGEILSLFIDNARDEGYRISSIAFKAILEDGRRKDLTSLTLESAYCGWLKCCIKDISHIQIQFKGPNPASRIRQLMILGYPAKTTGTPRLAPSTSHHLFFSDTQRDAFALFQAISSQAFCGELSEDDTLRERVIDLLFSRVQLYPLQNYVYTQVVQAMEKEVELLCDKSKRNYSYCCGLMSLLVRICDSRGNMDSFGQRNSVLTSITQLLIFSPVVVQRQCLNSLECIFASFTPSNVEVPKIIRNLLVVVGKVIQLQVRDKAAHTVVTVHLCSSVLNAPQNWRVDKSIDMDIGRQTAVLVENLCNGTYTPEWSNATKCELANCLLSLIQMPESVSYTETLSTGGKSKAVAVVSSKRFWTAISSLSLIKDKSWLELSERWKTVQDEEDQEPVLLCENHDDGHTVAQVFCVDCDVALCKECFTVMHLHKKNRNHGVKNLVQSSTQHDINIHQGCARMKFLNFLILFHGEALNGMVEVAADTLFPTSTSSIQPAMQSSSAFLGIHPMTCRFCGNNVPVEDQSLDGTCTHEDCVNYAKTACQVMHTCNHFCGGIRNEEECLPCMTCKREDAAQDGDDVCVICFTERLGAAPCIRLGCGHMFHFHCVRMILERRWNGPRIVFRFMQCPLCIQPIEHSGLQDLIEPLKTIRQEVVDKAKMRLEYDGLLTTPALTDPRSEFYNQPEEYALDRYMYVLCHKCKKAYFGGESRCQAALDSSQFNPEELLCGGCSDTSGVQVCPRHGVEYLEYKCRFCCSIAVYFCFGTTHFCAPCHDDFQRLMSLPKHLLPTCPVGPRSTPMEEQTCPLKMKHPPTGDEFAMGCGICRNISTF
# UniProt P91910: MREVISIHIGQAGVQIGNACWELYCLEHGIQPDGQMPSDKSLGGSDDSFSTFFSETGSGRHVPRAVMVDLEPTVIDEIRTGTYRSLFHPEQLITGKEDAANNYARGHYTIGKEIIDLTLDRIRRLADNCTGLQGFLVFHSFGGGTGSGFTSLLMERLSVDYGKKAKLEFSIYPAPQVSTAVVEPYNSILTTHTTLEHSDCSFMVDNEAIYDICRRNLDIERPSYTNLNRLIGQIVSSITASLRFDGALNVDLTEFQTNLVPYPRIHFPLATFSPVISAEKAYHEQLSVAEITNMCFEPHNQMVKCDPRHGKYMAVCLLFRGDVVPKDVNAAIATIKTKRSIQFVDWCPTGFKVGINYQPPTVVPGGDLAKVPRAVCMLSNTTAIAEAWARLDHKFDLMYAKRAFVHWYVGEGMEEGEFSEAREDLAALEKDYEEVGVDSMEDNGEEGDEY
# UniProt Q21215: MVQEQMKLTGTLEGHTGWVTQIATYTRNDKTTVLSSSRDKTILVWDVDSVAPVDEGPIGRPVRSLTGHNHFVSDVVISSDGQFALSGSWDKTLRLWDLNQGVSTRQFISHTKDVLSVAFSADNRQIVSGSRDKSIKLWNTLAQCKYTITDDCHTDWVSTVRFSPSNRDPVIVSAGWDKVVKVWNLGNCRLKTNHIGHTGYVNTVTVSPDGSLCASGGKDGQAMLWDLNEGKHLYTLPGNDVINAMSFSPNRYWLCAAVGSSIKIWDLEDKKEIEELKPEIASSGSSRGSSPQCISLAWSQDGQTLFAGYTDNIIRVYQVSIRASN
# UniProt P90980: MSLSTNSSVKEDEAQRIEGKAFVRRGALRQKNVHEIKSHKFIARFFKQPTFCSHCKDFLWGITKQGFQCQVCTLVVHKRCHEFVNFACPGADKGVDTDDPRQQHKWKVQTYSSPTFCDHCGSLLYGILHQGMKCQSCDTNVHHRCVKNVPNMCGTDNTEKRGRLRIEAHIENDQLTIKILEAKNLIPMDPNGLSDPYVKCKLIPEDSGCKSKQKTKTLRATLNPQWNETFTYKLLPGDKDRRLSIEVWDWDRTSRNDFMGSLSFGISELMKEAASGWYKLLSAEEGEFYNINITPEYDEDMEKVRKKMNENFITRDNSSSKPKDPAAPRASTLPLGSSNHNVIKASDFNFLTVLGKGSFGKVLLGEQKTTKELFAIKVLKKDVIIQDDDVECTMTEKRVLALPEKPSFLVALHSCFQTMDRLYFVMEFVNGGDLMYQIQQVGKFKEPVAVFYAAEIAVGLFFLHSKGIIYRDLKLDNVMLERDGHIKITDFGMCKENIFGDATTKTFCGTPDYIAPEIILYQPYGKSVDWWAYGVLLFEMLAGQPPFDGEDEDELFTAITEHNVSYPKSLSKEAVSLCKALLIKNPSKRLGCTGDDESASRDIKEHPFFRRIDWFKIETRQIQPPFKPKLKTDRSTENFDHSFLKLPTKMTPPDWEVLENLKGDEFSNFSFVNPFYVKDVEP
# UniProt G5EGK8: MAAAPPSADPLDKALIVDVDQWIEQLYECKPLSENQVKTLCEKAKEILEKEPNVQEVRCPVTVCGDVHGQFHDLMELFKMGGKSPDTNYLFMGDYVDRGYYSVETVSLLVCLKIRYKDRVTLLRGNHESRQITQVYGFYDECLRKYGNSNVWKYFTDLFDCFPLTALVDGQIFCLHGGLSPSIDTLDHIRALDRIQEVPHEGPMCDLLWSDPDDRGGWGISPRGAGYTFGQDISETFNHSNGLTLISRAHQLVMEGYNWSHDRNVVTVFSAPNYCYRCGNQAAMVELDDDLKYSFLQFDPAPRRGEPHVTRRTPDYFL
# UniProt Q22038: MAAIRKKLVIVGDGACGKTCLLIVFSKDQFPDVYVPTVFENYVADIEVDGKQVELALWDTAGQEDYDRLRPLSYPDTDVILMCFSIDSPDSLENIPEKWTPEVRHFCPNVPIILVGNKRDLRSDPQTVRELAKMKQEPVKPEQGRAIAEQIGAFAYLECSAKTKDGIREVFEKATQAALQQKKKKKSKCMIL
# Results are given in words; binding and its absence hold for the method and conditions named. Binding seen in cells or lysates may run through a third protein. A yes stands for co-enrichment or nearness to the bait. Other partners may have been found.
# Target: GS::RPM-1 (C. elegans) (UniProt Q17551)
# Assay: affinity purification with mass spectrometry; GS-tagged RPM-1 bait captured on IgG-coupled Dynabeads from whole-animal lysates of mixed-stage C. elegans (80 mg total protein, 500 uL beads, 4°C, 4 hours; various detergent conditions); SDS-PAGE, in-gel trypsin digest, LC-MS/MS; GS::GFP negative control; 7 independent experiments; hit = 1.5x or greater total spectra over GS::GFP
row,binding,Molecule
1,binds,MEC-12 (from UniProt P91910 1-450)
2,binds,RACK-1 (from UniProt Q21215 1-325)
3,binds,"CRT-1 (protein, UniProt P27798 16-395) EVYFKEEFNDASWEKRWVQSKHKDDFGAFKLSAGKFFDVESRDQGIQTSQDAKFYSRAAKFDKDFSNKGKTLVIQYTVKHEQGIDCGGGYVKVMRADADLGDFHGETPYNVMFGPDICGPTRRVHVILNYKGENKLIKKEITCKSDELTHLYTLILNSDNTYEVKIDGESAQTGSLEEDWDLLPAKKIKDPDAKKPEDWDEREYIDDAEDAKPEDWEKPEHIPDPDAKKPEDWDDEMDGEWEPPMIDNPEYKGEWKPKQIKNPAYKGKWIHPEIENPEYTPDDELYSYESWGAIGFDLWQVKSGTIFDNIIITDSVEEAEAHAAETFDKLKTVEKEKKEKADEETRKAEEEARKKAEEEKEAKKDDDEEEKEEEEGHDEL"
4,binds,"PAT-4 (protein, UniProt Q9TZC4 1-466) MSLSTHYHAHKPNVPIIMEDVFGWVREGNAFQVRVWLDDHEHDLNVGDDHAFSLLHWAAKGGHVAIAEMLLSRGARVNSTNMGDDTSLHLAAAHGHRQIVVKLLSRKADVNATNEHGMTPLHYACFWGYEQIAEDLISCGAAVNVCNKKGMTPLDVCQPMCKNTILEIAQEHGQSPNDRVPFKDTTWKGTKSRTRDATLSRYTGVDVSSLNLITKIAESHSGELWRGKWQGNDIVARILNVQEVTARISRDFQTEFPALRIFAHPNICAVLAAANQPPNLVIISQYMPFGSLYNVLHEQSSVVIDHGQAVRFALDIARGMSYLHSLDPMLLRFYLSSKHVVVDEELTAKLSMADTKFSFQEVGKAYSPAWMSPEALSRAPEDLNIRAADMWSFAILLWELNTREVPFSDLPPMECGMKIALEGLRVHIPPGIARNMNRLMNICMNEDPGRRPNFDQIIPILERMIL"
5,binds,"PAT-6 (protein, UniProt O16785 1-375) MSTLGRSKTPSRDEPKKPGVFEKLSGTLSRKKKAPEDEHGNQGGAHHATDEDEVLELELEGREALDQSLVPVLARNIWLEEGEIRRYLTKETARDQKLAQVVDLLIYWLNEELADQRIVVRHLQEDLFDGQIIQKLLEKLEQIRIEVPEVSQSEEGQRQKLQIVVQTANRILGQPREQEKWSADLIHQKDFTAIIQLLVLLALHYRAPVRFPDNVVANVVVAQKEHGQVKTHRITEQITTVQTELAPKGTRDAFDTLFDYGPDKLAHVKTSLLAFCNKHLNKINLEVSDLDNQFQDGVFLVLLVGLLEGYFVPLYHFNLQVQSHEEKVKNVQFAFKLMEDTGLEKPRSRVQDIANGDVKSTLRLLHLLFTKYKHI"

# The next lines start with the molecule.
row,Molecule,binding
1,PKC-2 (from UniProt P90980 1-682),binds
2,CED-10 (from UniProt Q03206 1-191),binds
3,LET-92 (from UniProt G5EGK8 1-318),binds
4,RHO-1 (from UniProt Q22038 1-192),binds
5,"PAT-2 (protein, UniProt P34446 26-1226) FNIDTKNVVVHHMAGNYFGYSLDFYHEQKGMPVLVVGAPEAESNNPNLAGIRRPGAVYACSVNRATCREVHVDKMKGNLKKLNGSHLVPIEEKSHQFFGATVRSNDKHDKIVVCAPKYTYFYSKFEVIEPVGTCFYAENGFDNAEEFSSCKQEPARHGRHRLGYGQCGFSAAVPGKKNQNRVFIGAPGVWYWQGAMFSQNIKNQTDRPNTEYGSKEYDHDMMGYSTATGDFDGDGIDDIVAGVPRGNDLHGKLVLYTSKLKMMINLTDEVSTQHGQYCGGSVAVADVNKDGRDDIIMGCPFYTDYGSVKDAKTQERKPQYDVGKVIVMLQTAPGVFGKQIAVVGDDQWGRFGHAVAAAGDLNLDGYNDVIVGAPYAGKNKQGAVYVIHGSKDGVRELPTQKIEGANIGHGNIKSFGFSLTGNEDVDGNGMPDIAVGAWKSGNAAVLLTKPVVTVTGQTEPESALISVEDKNCDVDGKLGKQACKHINTCFKYEGKGDTPNDLEFDLRFNLDDHSPEPRAYFLQKDVKSDRSIKVAQGSKTRDHPSSIEQRVRLEKGRQKCFRHRFFASSTMKDKLSPIHWSVNYTYVESKTGKLRGDKLEPAIDTTVPLSFQNKINIANNCGKDDLCVPDLKVTAVADREKFLLGTQDNTMLINVTVQNGGEDSYETKLYFDVPQGFEYGGIESVGGDGSKSAPACSPTSDEPDSDGKWTFACDLGNPLPANKVVSSVVRVTASSDKPPLAPISINAHVNSSNDEEAHTVADNKVTFTIPVDFKNQLSLNGRSNPEQVDFSMTNKTRVDAFDDNEIGPVVSHLYQISNRGPSEVDSATLDIFWPSFSTEGGHLLYIITEPVVNPPNKGRCRVKQLQNVNPLNLRITNEHVPTEPPVAKTPNEYSREEDDESYEDETTTQSQSTRHQSTQHQTHHQSGPVHVYEKDEEKIRQNTGNWQYVEDKKKKGDYEYIPDDQEYDGDDFEEEDDEDFDRAGSKRVKRNPTPKKKKKGGEHRGEPRSDKARFSDLREAVKLSKEAGGVVDYKGPLSRASVDCNSLRCTHIECDIYDLKEDEFVLVEIFSRLYTNTLVDEKNPGGDISSLALARVTSTKYNLPHKPTLITAVSTNMNAIASEEGRDLPWWLYLLAILIGLAILILLILLLWRCGFFKRNRPPTEHAELRADRQPNAQYADSQSRYTSQDQYNQGRHGQML",binds
6,"DEB-1 (protein, UniProt P19826 1-1090) MPVFHTKTIENILEPVAQQLHYVLAMAEKNATSVDEVRHLGTSMPNLDRFASRSALALSRASSRRSIPEYITPDTVRHVVNDDDCPVCQLMMPRGKDGCVSRLVILHEEANDGNAMPDLTGPVGMVSRAVGNLIQVGYDTCDHSDDRILQQDMPPALQRVEGSSKLLEESSYSLKHDPYSVPARKKLIDGARGILQGTSALLLCFDESEVRKIIRVCRKANDYVAVSEVIESMADLQQFVKDISPVLHDVTNDVNLRQQELTHQVHREILIRCMDSIKVIAPILICSMKTSIELGTPHPRQGHAEAIANRNFMSQRMTEEMNEIIRVLQLTTYDEDEWDADNVTVMRKALSAAKSLLTAALDWLADPHARSGAVGEKAIRRICEYADRISARALPEDAQSIKRSIFEITSFTDELCNLRNNGQPDRENLAAQTARRLKDLVGSQNSSGLMGDALQNAQRHGGANPAHTAAGRLEQALRWLDNPGLDDGGLGLQALRLLTADARKLADRLNPQDRNRLLGLCSDIDRLAAQLADLERRGLGNSPEAHQIRNQLKNALRDLGDFMRRVLTDRVVDDFADITTPLKQFVEAVHADPYDPNREQNFVDKSQRLTDHSQSMTTTARLVASCGPSKSKKTVEAILDTAEKVEQLTPQLVNAGRVRLHNPGSEQHFENIHKQYADALHRLRSHVDDAIDTGEFVRASETAMRRYTNHCEGAINGADAHGLVNNSSQIARLGNRVLMTAQNEADNSEEPSFVSRVRNAADQLHNAIPPMVNNAKQIAQNPHDQYAAQNWRGTNDHLLNSVRAVGDAITGVPMSNGRHSSYQESISRASPYNPPPPSSQVIRSVNASPPTAPIIHNKMIIREDIPAPPRPPPPVELSPPPRPPPPPEYDEEEETRAFWERYPLPQASHQPMLAAAHNLHNELKQWSSQENDIVAAAKRMAILMARLSQLVRGEGGTKKDLINCSKAIADSSEEVTRLAVQLARLCTDIKMRTALLQVSERIPTIATQLKVLSTVKATMLGSANVIGPYGQPVEGSEEDDEAMQQLVHNAQNLMQSVKDVVRAAEAASIKIRTNSGLRLRWLRKPMWSNF",binds
7,"UNC-97 (protein, UniProt P50464 1-348) MDSDHNHINGDLAHGFENMVCVRCNDGFSMQDQMVNSSGQVWHSECFVCAQCFEPFPDGIYFEYEGRKYCEHDFHVLFSPCCGKCNEFIVGRVIKAMNASWHPGCFCCEICNKQLADVGFLRNAGRALCRECNEREKAAGHGRYVCHKCHAMIDDGQHIKFRGDSFHPYHFKCKRCNNELTTASREVNGELYCLRCHDTMGIPICGACHRPIEERVIAALGKHWHVEHFVCSVCEKPFLGHRHYERKGLPYCEQHFHKLFGNLCFKCGDPCCGEVFQALQKTWCVKCFSCSFCDKKLDQKTKFYEFDMKPTCKRCYDRFPTELKKRISESLKDRDVENQRRSMSPGPK",binds
8,"PAB-1 (protein, UniProt Q9U302 1-646) MEMNVAAPAAAVAGAAAPQPGQNQTGSSYTMASLYVGDLHPDVNESILFEKFSAAGPVLSIRVCRDNATRLSLGYAYVNFQQPADAERAMDTMNFEALHGKPMRIMWSQRDPAMRRSGAGNIFIKNLDKVIDNKSIYDTFSLFGNILSCKVAIDEDGFSKGYGFVHFETEEAAQNAIQKVNGMLLAGKKVFVGKFQPRAQRNRELGETAKQFTNVYVKNFGDHYNKETLEKLFAKFGNITSCEVMTVEGKSKGFGFVAFANPEEAETAVQALHDSTIEGTDLKLHVCRAQKKSERHAELKKKHEQHKAERMQKYQGVNLYVKNLDETVDDDGLKKQFESYGNITSAKVMTDENGRSKGFGFVCFEKPEEATSAVTEMNSKMVCSKPLYVAIAQRKEDRRAQLASQYMQRLASMRMHGNVPGAAMYNPTQPGPGYYVANPMQQQRNFAGGQQMVRPGGRWGMQNQYPVQNQYMMAQGPGVYQNRMGRPQNQQGGPRGPPQQYNQVAQGGVRMQGPPRTQNPGVQQQNVPRPPQQQQQQRPAPTGPKAPPQPYQAYQQRPQGIVIGGQEPLTSAMLAAAAPQEQKQLLGERIYALIEKLYPGHKDAGKITGMMLEIDNSELIMMLQDSELFRSKVDEAASVLVSAQKQ",binds
9,"CAV-1 (protein, UniProt Q94051 1-235) MSTEQDIKTEEQIPLTYAAVAAPTVQTEGEAVVAPEEPKPKKNWFTFGKKKAAPTDETNIEEGGAPGDEPVKEKKEKKCWWSRCQKGEGEQKEENIAIGVDLVNRDANSMNNHVQLNFEDIFGEADSQHSWDCVWRLNHTVFTAVRLFIYRLVSLLALPFTIIFAIFFGLLASINVFIIVPLGKLLSIPGTLLAKLWNWLIHAIFDPIASAVGLIFSNFNIRKYGINQETTAPCV",binds
